# Reference: PubChem BioAssay AID1961 (Sanford-Burnham Center for Chemical Genomics, 2009)
# This is one part of the list. Some of these compounds have results that are not shown, active ones among them.
# Assay: GPR55 agonists via beta-arrestin recruitment, primary screen, imaging, U2OS cells, beta-arrestin-GFP redistribution (AID 1961);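 also: U2OS osteosarcoma cells stably expressing GPR55 and beta-arrestin-GFP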
# Conditions: measured here: cytotoxicity, cells analyzed, at 10 µM
row,Structure (SMILES),cell count
1,CC(C)N1C(=O)CC2(CCN(CCOC(=O)C(O)(c3ccccc3)c3ccccc3)CC2)C1=O,406 cells
2,CCN(CC)CC(C)C(C)OC(=O)C(O)(c1ccccc1)c1ccccc1 (centres undefined),352 cells
3,COc1cc(SC)ccc1C(=O)NCC1(N(C)C)CCCCC1,386 cells
4,Cc1ccc(C(=O)NCC2(N3CCCCC3)CCCCC2)cc1,364 cells
5,O=C(NCC1(N2CCCCC2)CCCCC1)c1cc([N+](=O)[O-])ccc1Cl,238 cells
6,CN1[C@@H]2CC[C@H]1CC(OC(=O)C(O)(c1ccccc1)c1ccccc1)C2 (some centres undefined),394 cells
7,C=CCN1CCN(CCOC(=O)C(O)(c2ccccc2)c2ccccc2)CC1,342 cells
8,O=C(NCC1(N2CCCCC2)CCCCC1)c1cc(F)c(F)cc1Cl,342 cells
9,CCN1CCCC(OC(=O)C2(O)c3ccccc3C=Cc3ccccc32)C1 (centres undefined),326 cells
10,Cc1cc(C(=O)NCC2(N3CCCCC3)CCCCC2)ccc1[N+](=O)[O-],311 cells
11,O=C(NCC1(N2CCCCC2)CCCCC1)c1cccc(Br)c1,389 cells
12,COc1ccc(C(=O)NCC2(N(C)C)CCCCC2)cc1,364 cells
13,Cc1ccccc1C(=O)NCC1(N2CCCCC2)CCCCC1,191 cells
14,CN(C)c1ccc(C(=O)NCC2(N(C)C)CCCCC2)cc1,407 cells
15,CN(C)C1CCCC1OC(=O)C(O)(c1ccccc1)c1ccccc1 (centres undefined),329 cells
16,COc1cccc(C(=O)NCC2(N3CCCCC3)CCCCC2)c1,248 cells
17,COc1ccc(Cl)cc1C(=O)NCC1(N(C)C)CCCCC1,342 cells
18,O=C(NCC1(N2CCCCC2)CCCCC1)c1cccc(Cl)c1,343 cells
19,CN(C)C1(CNC(=O)c2ccc(Br)cc2)CCCCC1,391 cells
20,COc1cc(C(=O)NCC2(N(C)C)CCCCC2)c([N+](=O)[O-])cc1OC,335 cells
21,COc1ccc(Br)c(C(=O)NCC2(N3CCCCC3)CCCCC2)c1,345 cells
22,CN(C)c1cccc(C(=O)NCC2(N(C)C)CCCCC2)c1,296 cells
23,CC(C)Oc1ccc(C(=O)NCC2(N(C)C)CCCCC2)cc1,349 cells
24,O=C(OC1CN2CCC1CC2)C(CO)(c1ccccc1)c1ccccc1 (centres undefined),393 cells
